# Measurements published in PubChem BioAssay (NCATS).
# The inconclusive results got no clear call from the source; some entries with a clear call stand among them for comparison. For some assays here: Where the call is inconclusive, the potency comes from a doubtful curve fit. The source made the active and inactive calls. Unless noted, calls come from the whole dose curve; as a rule, active = well fitted curve in the direction sought with a large enough effect; inconclusive = small, poorly fitted or top-dose-only effect, or another doubt; inactive = no such curve, though single readings can be large; an effect the other way counts as inactive or inconclusive.
# Key:
# [1] = Cellular Toxicity (caspase-3) N2a (AID 665); details: N2a cells, caspase-3 activation, luminescence;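 note: compound exposure lasted 16 h at 37 °C before readout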
# In short: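 Caspase-3/7 activation, measured as increased luminescence from aminoluciferin release, is quantified in mouse N2a cells exposed to compounds for 16 h. Values are normalized to DMSO and 10 uM staurosporine, with AC50 derived by Hill modelling.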
# [2] = Cellular Toxicity (caspase-3) Renal Proximal Tubule (AID 667); details: renal proximal tubule cells, caspase-3 activation; primary cells freshly taken from rat;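 note: cells exposed to compound for 16 hours at 37 °C before detection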
# In short: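 Freshly isolated primary rat kidney proximal tubule cells, 1000/well, treated 16 hr at 37 °C, then Caspase-Glo 3/7 luminescence after 1 hr. Normalized to DMSO and 10 uM staurosporine; AC50 from Hill fit.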
# [3] = MultiTox-Fluor Cytotoxicity Assay - LYMP1-001 - Live Cells (AID 947); details: LYMP1-001 lymphoblastoid cells, live-cell protease fluorescence viability
# [4] = MultiTox-Fluor Cytotoxicity Assay - LYMP1-002 - Live Cells (AID 955); details: LYMP1-002 lymphoblastoid live-cell protease fluorescence viability; series mostly up to 46.1 µM
# In short: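 Cells were seeded at 2500 per well and incubated 5 hr. Compounds were then added for 16 hr at 37 C, followed by MultiTox-Fluor reagent for 60 min at room temperature and fluorescence reading of viable-cell protease signal.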
# [5] = Cell Viability - LYMP1-003 - Assay at 24 hr (AID 963); details: LYMP1-003 lymphoblastoid cell viability; series mostly up to 92.2 µM
# In short: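 Cytotoxicity is scored as a concentration-dependent fall in ATP-linked luciferase signal in human lymphoblastoid LYMP1-003 cells treated 24 hr at 37 C in complete culture medium.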
# [6] = Cell Viability - LYMP2-004 (AID 966); details: LYMP2-004 lymphoblastoid cell viability, qHTS; series mostly up to 92.2 µM; note: nearly all actives have a fitted effect of over 65% in size
# In short: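 qHTS cytotoxicity: human lymphoblastoid line, 24 hr compound treatment, 37 C, complete medium. Viability read as cellular ATP via luciferase luminescence; tetraoctylammonium bromide served as positive control.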
# [7] = Cell Viability - LYMP2-005 (AID 967); details: LYMP2-005 lymphoblastoid cell viability; series mostly up to 92.2 µM
# In short: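 Human lymphoblastoid LYMP2-005 cells, 2,500 per well in complete medium, rested 5 h at 37C then compound-treated 24 h at 37C. Intracellular ATP read by CellTiter-Glo luminescence after 30 min at room temperature; AC50 from Hill-equation fits of concentration-response data.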
# [8] = Cell Viability - LYMP2-009 (AID 968); details: LYMP2-009 lymphoblastoid cell viability; note: nearly all actives have a fitted effect of over 55% in size
# [9] = Cell Viability - LYMP2-015 (AID 971); details: LYMP2-015 lymphoblastoid cell viability; note: nearly all actives have a fitted effect of over 55% in size
# In short: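 Cells are seeded at 2500 per well and incubated 5 hr at 37 C. Compounds are added across a concentration series for 24 hr at 37 C. CellTiter-Glo is added, and luminescence is read after 30 min at room temperature.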
# [10] = Cell Viability - LYMP2-017 (AID 972); details: LYMP2-017 lymphoblastoid cell viability; series mostly up to 92.2 µM; note: nearly all actives have a fitted effect of over 55% in size
# In short: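 Cytotoxicity is scored as a concentration-dependent drop in cellular ATP in a human lymphoblastoid line after 24 hr treatment at 37 C. Values are AC50s from Hill-equation modelling.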
# [11] = Cell Viability - LYMP2-021 (AID 974); details: LYMP2-021 lymphoblastoid cells viability;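 note: compound exposure lasts 24 hours at 37 °C; nearly all actives have a fitted effect of over 55% in size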
# In short: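 Loss of cellular ATP, measured with a luciferase-based CellTiter-Glo readout, serves as the toxicity signal in human lymphoblastoid cells treated for 24 hours at 37 C. Potency is reported as AC50 from a standard Hill model.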
# [12] = Cell Viability - LYMP2-023 (AID 975); details: LYMP2-023 lymphoblastoid cell viability; series mostly up to 92.2 µM; note: nearly all actives have a fitted effect of over 55% in size
# In short: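 Steps: seed 2500 human lymphoblastoid cells per well, incubate 5 hr at 37 C, add compound for 24 hr at 37 C, add CellTiter-Glo, hold 30 min at room temperature, read luminescence. AC50 derived by Hill modelling.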
# [13] = Cell Viability - LYMP2-025 (AID 976); details: LYMP2-025 lymphoblastoid cell viability; series mostly up to 92.2 µM
# In short: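 Acute cytotoxicity is scored as a concentration-dependent fall in intracellular ATP, measured by luciferase luminescence, in human lymphoblastoid LYMP2-025 cells exposed to compound for 24 hours at 37 C. AC50 values come from standard Hill fits.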
# [14] = Cell Viability - LYMP2-002 (AID 977); details: LYMP2-002 lymphoblastoid cell viability, qHTS; series mostly up to 92.2 µM;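 note: compound exposure lasted 24 h at 37 °C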
# In short: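 In this qHTS viability screen, 2500 human lymphoblastoid cells per well receive compound for 24 hr at 37 C, and luciferase-based ATP luminescence gives the viability signal. Tetraoctylammonium bromide serves as positive control.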
# [15] = Cell Viability - LYMP2-010 (AID 981); details: LYMP2-010 lymphoblastoid cell viability, qHTS; series mostly up to 92.2 µM; note: nearly all actives have a fitted effect of over 55% in size
# In short: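 Steps: seed 2500 LYMP2-010 cells per well; incubate 5 hr at 37 C; add compound; incubate 24 hr at 37 C; add CellTiter-Glo, wait 30 min at room temperature; read luminescence. Concentration-response fitted to Hill equation for AC50.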
# [16] = Cell Viability - LYMP2-014 (AID 983); details: LYMP2-014 lymphoblastoid cells, viability qHTS; series mostly up to 92.2 µM; note: nearly all actives have a fitted effect of over 50% in size
# In short: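 Cells are plated at 2500/well and left 5 hr at 37 C. Compounds are added across a concentration range and incubated 24 hr at 37 C in complete medium. CellTiter-Glo is added, and luminescence is read after 30 min at room temperature.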
# [17] = qHTS assay for small molecule antagonists of the retinoid-related orphan receptor gamma (ROR-gamma) signaling pathway - cell viability counter screen (AID 720652; active = well fitted curve in the direction sought with a large enough effect in the repeat runs; inconclusive = weak or mixed curves; inactive = no such curve, though single readings can be large; an effect the other way counts as inactive or inconclusive;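 note: compound exposure lasted 16 hr before ATP read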); details: RORgamma reporter cell line viability counter screen; series mostly up to 92.2 µM
# In short: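 Steps: seed CHO cells bearing TET-inducible ROR and ROR response element-luciferase; rest 5 hr at 37 C; add compound, then doxycycline; incubate 16 hr; add CellTiter-Glo and read luminescence as ATP-based viability.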
# [18] = qHTS assay for small molecule agonists of the antioxidant response element (ARE) signaling pathway measured by Nrf2-dependant transcriptional activity - cell viability counter screen (AID 720653; active = well fitted curve in the direction sought with a large enough effect in the repeat runs; inconclusive = weak or mixed curves; inactive = no such curve, though single readings can be large; an effect the other way counts as inactive or inconclusive); details: ARE-bla HepG2 viability, CellTiter-Glo ATP luminescence, 16 h; max response: active compounds read low
# In short: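 ARE-bla HepG2 cells (2,000/well) rested 5 hrs at 37C/5% CO2, then exposed to compounds in DMSO for 16 hrs. Viability was read in the same wells as intracellular ATP by luminescence, 30 min at room temperature after reagent addition.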
# [19] = qHTS assay for cell viability of HEK293 cells (AID 743288); details: ATP luminescence (CellTiter-Glo), 18 h; max response: active compounds read low; note: nearly all actives have a fitted effect of over 50% in size
# In short: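 Steps: plate 2,000 parental HEK293 cells per well; incubate ≥5 h, 37 C; add compounds in DMSO; incubate 18 h, 37 C; add CellTiter-Glo; wait 30 min at room temperature; read luminescence.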
# [20] = qHTS assay for cell viability of the p53RE-bla HCT-116 cell line (AID 743292); details: p53RE-bla HCT-116 viability, ATP luminescence, 16 h; note: nearly all actives have a fitted effect of over 55% in size
# In short: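 Quantitative high-throughput format: compounds in DMSO were pinned onto p53RE-bla HCT-116 cells (4,000/well) and incubated 16 h at 37 C. Total intracellular ATP, read by CellTiter-Glo luminescence, reflects viable cell number.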
# Potency is the fitted concentration of half-maximal effect.
smiles,measurement,setting,value
CC1=C(/C=C/C(C)=C/C=C/C(C)=C/C(=O)Nc2ccc(O)cc2)C(C)(C)CCC1,Potency,[1],active: 31.6 µM
same,Potency,[2],active: 31.6 µM
same,Potency,[3],"inconclusive: 50.1 µM [cytotoxic, partial curve, poor fit]"
same,Potency,[4],active: 25.1 µM
same,Potency,[5],active: 50.1 µM
same,Potency,[6],active: 39.8 µM
same,Potency,[7],"inconclusive: 39.8 µM [cytotoxic, partial curve, poor fit]"
same,Potency,[8],"inconclusive: 79.4 µM [cytotoxic, single point]"
same,Potency,[9],"inconclusive: 79.4 µM [cytotoxic, partial curve, poor fit]"
same,Potency,[10],active: 50.1 µM
same,Potency,[11],active: 50.1 µM
same,Potency,[12],active: 50.1 µM
same,Potency,[13],"inconclusive: 79.4 µM [cytotoxic, partial curve, poor fit]"
same,Potency,[14],"inconclusive: 50.1 µM [cytotoxic, single point]"
same,Potency,[15],active: 50.1 µM
same,Potency,[16],active: 50.1 µM
same,Potency,[17],active: 26.6 µM
same,Potency,[18],active: 44.7 µM
same,Potency,[19],active: 50.1 µM
same,Potency,[20],"inconclusive: 50.1 µM [cytotoxic, partial curve, poor fit]"

# Some of the entries so far, with bars between the fields:
smiles | measurement | setting | value
CC1=C(/C=C/C(C)=C/C=C/C(C)=C/C(=O)Nc2ccc(O)cc2)C(C)(C)CCC1 | Potency | [16] | active: 50.1 µM
same | Potency | [19] | active: 50.1 µM
